In publication PMC12040169 (PLOS Biology, 2025):
The list shows a part of the results.

These molecules were tested on T1, CTL2-GFP (C. trachomatis L2/434/Bu, GFP-expressing). Details: bulk GFP, single well; 28.5 h, 10 µM; inhibitor.
T1 construct: L2/434/Bu, GFP-expressing
Design: species or system HeLa; Intracellular C. trachomatis growth in HeLa cells, bulk GFP fluorescence relative to DMSO

| Structure (SMILES) | % of control remaining [%] |
| --- | --- |
| O=C(c1ccco1)N1Cc2nc[nH]c2C[C@H]1c1nc(-c2ccc3ccccc3c2)no1 [CBK288965] | 109.197 |
| COc1ccc(C2(C(F)(F)F)NC(=O)N3CCN=C3S2)cc1 (centres unmarked) [CBK019170] | 98.6773 |
| CC(C)=NNC(=O)CN(c1ccc(C)cc1)S(=O)(=O)c1ccccc1 [CBK262280] | 98.7553 |
| CC(Cc1cccs1)NC(=O)c1cc(C2CC2)on1 (centres unmarked) [CBK283244] | 85.5957 |
| Cc1noc(C)c1NC(=O)N(Cc1ccccc1C(F)(F)F)C1CCC(N)CC1 (centres unmarked) [CBK045963C] | 75.7963 |
| CC(Oc1ccccc1)C(=O)Nc1ccccc1-c1ccccc1 (centres unmarked) [CBK264059] | 85.2176 |
| CNC(C)Cc1ccccc1Sc1ccccc1 (centres unmarked) [CBK027167G] | 159.622 |
| CCC(C)(CC(=O)O)CC(=O)N1CCC2(C1)NCCc1c2[nH]c2ccccc12 (centres unmarked) [CBK047003] | 105.497 |
| COC(=O)NC(=S)Nc1ccc2c(c1)OCCO2 [CBK018644] | 124.442 |
| COc1ccc(CN2CCCc3ccccc32)cc1 [CBK126458] | 116.544 |
| CCN(CC)CCNC(=O)C1CCCCN1S(=O)(=O)c1ccc(C)cc1 (centres unmarked) [CBK101088] | 97.9843 |
| O=C(Nc1ccccc1C(=O)O)c1ccccc1Cl [CBK287114] | 110.668 |
| Cc1nc2ccc(C(=O)N3CCCCC3)cn2c1N(C)C=O [CBK145480] | 98.0239 |
| CC(NCc1nc(=O)c2sccc2[nH]1)c1ccc2c(c1)OCCO2 (centres unmarked) [CBK295157] | 142.968 |
| Cc1ccc(CNC(=O)c2ccc(-n3ccnc3)c(-n3cccc3)c2)o1 [CBK284812] | 128.55 |
| Cc1ccc(OCC(=O)Nc2ncn(Cc3cccnc3)n2)cc1 [CBK304888] | 114.178 |
| O=C(NCc1ccccc1)c1cnsn1 [CBK267302] | 147.367 |
| CCC1=C(C)C(=O)N(C(=O)NCCc2ccc(S(=O)(=O)NC(=O)NC3CCC(C)CC3)cc2)C1 (centres unmarked) [CBK011561] | 113.089 |
| Cc1ncc(COP(=O)(O)O)c(/C=N/c2ccc3ccccc3c2)c1O [CBK261460] | 68.7248 |
| Cc1ccc(-c2nc3ccccc3s2)cc1NC(=O)c1sc2ccccc2c1Cl [CBK263865] | 145.44 |
| Cn1ncc2c(=O)n(Cc3noc(-c4ccsc4)n3)cnc21 [CBK305056] | 145.063 |
| CC(C)COC(=O)N1CCC(N(C)Cc2ccc(-c3ccc(S(C)(=O)=O)cc3)nc2)CC1 [CBK165259T] | 96.5572 |
| COC(=O)c1csc2c1N[C@H](C1CC3C=CC1C3)[C@@H]1CCO[C@H]21 (some centres unmarked) [CBK303251] | 106.309 |
| COc1cc2c(cc1OC)C1c3ccccc3NC(c3ccccc3F)N1CC2 (centres unmarked) [CBK286311] | 110.07 |
| COc1ccccc1C1(NC(=O)c2cnsc2)CCCC1 [CBK283643] | 117.604 |

3 entries out of the list, sorted by heavy-atom count, smallest number first:

| Structure (SMILES) | % of control remaining [%] |
| --- | --- |
| COC(=O)NC(=S)Nc1ccc2c(c1)OCCO2 [CBK018644] | 124.442 |
| CC(NCc1nc(=O)c2sccc2[nH]1)c1ccc2c(c1)OCCO2 (centres unmarked) [CBK295157] | 142.968 |
| Cc1ncc(COP(=O)(O)O)c(/C=N/c2ccc3ccccc3c2)c1O [CBK261460] | 68.7248 |

Carrying on:

| Structure (SMILES) | % of control remaining [%] |
| --- | --- |
| O=C1c2ccc(S(=O)(=O)c3ccc4c(c3)C(=O)N(c3nccs3)C4=O)cc2C(=O)N1c1nccs1 [CBK261335] | 105.216 |
| CC1=CCC2(CC1)COC(C(C)(C)CN(C)C)OC2 (centres unmarked) [CBK011369] | 112.059 |
| Cc1noc(C)c1NC(=O)c1ccno1 [CBK200394] | 124.665 |
| O=S(=O)(/N=C(/c1ccc(Cl)cc1)N1CCOCC1)c1ccccc1 [CBK293950] | 133.067 |
| Cc1cc(NC(=O)CCN2CCCCC2)no1 [CBK017079] | 136.927 |
| O=C(NCc1cccs1)c1ccc2c(=O)n3c(nc2c1)CCN(Cc1ccccc1)CC3 [CBK286448] | 91.9802 |
| O=C(Nc1nc2c(s1)CCCCC2)C1CN(S(=O)(=O)c2ccc(F)cc2)C1 [CBK286005] | 78.8665 |
| COc1ccccc1OCC(O)CN1CCN(C(=O)c2ccccc2)CC1 (centres unmarked) [CBK074386C] | 124.456 |
| COc1ccc(CC(=O)N2CCC(Cc3ccccc3-c3ccccc3)(C(N)=O)CC2)cc1 [CBK285911] | 118.932 |
| CCOC(=O)c1cnn(C2CCCN(Cc3c(C)n[nH]c3C)C2)c1 (centres unmarked) [CBK304059] | 120.597 |
| O=C(c1c(F)cccc1F)N1CCC(c2cc3cccnc3[nH]2)CC1 [CBK284997] | 103.168 |
| CCOC(=O)C1(C2CCCCC2)CCN(C(=O)CCSC)CC1 [CBK136929] | 90.9528 |
| NS(=O)(=O)c1ccc(NC(=O)CSc2nc3sc4c(c3c(=O)n2-c2ccc(Cl)cc2)CCCC4)cc1 [CBK267577] | 100 |
| O=C(NCC(CO)Cc1ccccn1)c1ccc2cc[nH]c2c1 (centres unmarked) [CBK305222] | 121.534 |
| CC1=C(C(=O)OCc2ccccc2)C2(C(=O)Nc3ccccc32)C(C(=O)OCc2ccccc2)=C(N)O1 (centres unmarked) [CBK262576] | 100 |
| CN1CC(CO)Oc2ccccc21 (centres unmarked) [CBK003872C] | 121.935 |
| Cc1cc(C)n(CCCNC(=O)Cn2cnc3sc(C)c(C)c3c2=O)n1 [CBK305852] | 131.921 |
| C=CCn1c2cc(C)sc2c2cnn(CC(=O)OCC)c(=O)c21 [CBK284165] | 96.4842 |
| CCc1ccc(OCC(=O)O/N=C(\N)c2ccncc2)c(Br)c1 [CBK265994] | 98.1665 |
| CCOc1cc(C(=S)N2CCN(C)CC2)ccc1OCC(=O)N1CCOCC1 [CBK266856] | 77.4028 |
| NS(=O)(=O)c1ccc(NC(=O)CN2CCC(Cc3ccccc3)CC2)cc1 [CBK266161] | 147.318 |
| O=C(Nc1ccc(O)c(-c2nc3ccccc3o2)c1)c1ccc(-c2ccc([N+](=O)[O-])cc2)o1 [CBK263439] | 94.1797 |
| CCOc1cc(OCC)cc(C(=O)Nc2ccc(-c3nc4ncccc4o3)cc2)c1 [CBK263440] | 122.209 |
| N#CCCCCn1cc(NC(=O)NCCc2cccs2)cn1 [CBK044855] | 100.784 |
| O=S(=O)(c1cccc2nonc12)N1CCCCCC1 [CBK265627] | 100 |
